Binding data for nine molecules are collected here from patent publication US20200024365A1.

Protein sequences, listed by entry. Tags and fused reporters are not part of them.
UniProt Q9UBN7: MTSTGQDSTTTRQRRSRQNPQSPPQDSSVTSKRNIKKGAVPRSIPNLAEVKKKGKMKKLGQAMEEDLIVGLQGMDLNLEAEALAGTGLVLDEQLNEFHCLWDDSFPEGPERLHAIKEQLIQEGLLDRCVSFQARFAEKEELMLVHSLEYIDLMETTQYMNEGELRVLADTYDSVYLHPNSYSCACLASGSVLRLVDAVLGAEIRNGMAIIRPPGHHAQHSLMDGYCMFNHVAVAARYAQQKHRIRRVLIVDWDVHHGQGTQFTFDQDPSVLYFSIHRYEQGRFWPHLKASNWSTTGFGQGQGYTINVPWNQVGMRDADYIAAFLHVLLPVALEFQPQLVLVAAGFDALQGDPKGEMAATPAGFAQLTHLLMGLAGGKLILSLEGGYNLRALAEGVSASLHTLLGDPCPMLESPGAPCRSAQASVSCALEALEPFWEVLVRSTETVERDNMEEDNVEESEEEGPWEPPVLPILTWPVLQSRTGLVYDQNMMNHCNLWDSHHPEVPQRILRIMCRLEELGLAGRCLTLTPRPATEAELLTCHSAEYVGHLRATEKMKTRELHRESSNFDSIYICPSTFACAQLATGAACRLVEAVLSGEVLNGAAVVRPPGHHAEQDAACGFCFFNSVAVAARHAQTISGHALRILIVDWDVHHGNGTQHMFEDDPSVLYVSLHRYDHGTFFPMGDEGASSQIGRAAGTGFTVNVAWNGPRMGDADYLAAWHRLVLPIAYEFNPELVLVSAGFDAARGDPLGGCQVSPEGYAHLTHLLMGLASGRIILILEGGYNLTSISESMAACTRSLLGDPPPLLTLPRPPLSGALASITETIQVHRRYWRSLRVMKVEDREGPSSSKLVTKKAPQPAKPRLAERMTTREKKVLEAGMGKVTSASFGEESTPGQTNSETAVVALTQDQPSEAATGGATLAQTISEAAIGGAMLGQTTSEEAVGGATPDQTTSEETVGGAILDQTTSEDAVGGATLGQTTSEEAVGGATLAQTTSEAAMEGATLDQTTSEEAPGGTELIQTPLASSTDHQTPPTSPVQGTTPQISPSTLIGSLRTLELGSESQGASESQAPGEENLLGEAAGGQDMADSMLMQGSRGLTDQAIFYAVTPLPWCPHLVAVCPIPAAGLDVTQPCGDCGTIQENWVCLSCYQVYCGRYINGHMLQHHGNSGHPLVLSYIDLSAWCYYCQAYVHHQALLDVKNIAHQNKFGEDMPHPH

These are yes or no findings as the source states them, for the method shown. Some results given as binding are weak or reduced against the parent protein; the word gives no strength.

The labels stand for the following.
B1: SEQ ID NO 11 (VHH)
VHH: VQLQESGGGSVQAGGSLRLSCAASTYAYSSTYMAWFRQAPGKEREGVASIYTGDGWTYYANSVKGRFTISRDNAKNTVYLQMNSLKPEDTAMYYCAAKTRAVGGTWSSPNIYTYWGQGTQVTVSS
B2: SEQ ID NO 3 (VHH)
VHH: ESGGGLVQPGGSLRLSCAASGFTFSNYAMEWVRQAPGKGLEWVSGINSGGIGTYYADSVKGRFTISRDNAKNTLYLQLNSLKTEDTAMYYCAKGYGNMVVAGITSNYRGQGTQVTVSS
B3: SEQ ID NO 12 (VHH)
VHH: VQLQESGGGSVQAGGSLRLSCAASVYRRHNYCMGWFRQRPGKEREEIAIFDRGDSTSYADSVKGRFTISQDNAKNMLYLQMNSLKPEDTAMYYCATSYPRVVIGTCTGGDFRVWGQGTQVTVSS
B4: SEQ ID NO 8 (VHH)
VHH: ESGGGSVQAGGSLRLSCAASGYTYSSTYMAWFRQAPGKEREGVASIYTGDGWTYYANSVKGRFTISRDNAKNTVYLQMNSLKPEDTAMYYCAAKTRAVGGTWSSPNIYTYWGQGTQVTVSS
B5: SEQ ID NO 5 (VHH)
VHH: ESGGGSAQAGGSLRLSCPASGLTSSTACLAWFRQAPGKEREGVARIRSLFGSTWYADSVKGRFTISQDTTKNMLYLQMDSLKPEDTAMYYCAAGRTGVCYSGSWSPDEFNYWGQGTQVTVSS
B6: SEQ ID NO 2 (VHH)
VHH: VQLQESGGGSVQAGGSLTLSCVCSGYIPSKAWFRQAPGKEREAVAAIDGPGRIRYVDSVNGRFTISQDIVKKTLVLEMNSLKPEDTAMYYCAADPRLSTNNWSRAPEYRYWGQGTQVTVSS
B7: SEQ ID NO 14 (VHH)
VHH: VQLQESGGGSVQAGGSLRLSCATSGFPFSTYCMGWFRQVPGKEREGVAGIYISHGQTYYADSVKGRFTISRDDKKKTLYLQMEALNPEDTAMYYCAAGDRWYCPADSWSRPERYPFWGQGTQVTVSS
B8: SEQ ID NO 15 (VHH)
VHH: VQLQESGGGSVQAGGSLRLSCAASGFTFSMNGMSWVRQAPGKGLEWVSAITTGGSVATYADSVKGRFTISRDNAKNTLYLQMNNLKTEDTAVYYCATGNQRRPAQHVGVWGQGTQVTVSS
B9: SEQ ID NO 16 (VHH)
VHH: VQLQESGGGSVQAGGSLRLSCTASGYTSSMGWFRQAPGKEREGVAAIGIVNAVYADSVKGRFTISKDNAEYTLYLQMNSLKPEDTAMYYCAAVRRLQKKNQLASDEYMYWGQGTQVTVSS

One experiment addresses HDAC6-WT (UniProt Q9UBN7). The experiment can be described thus: ELISA, purified nanobody on plate coated with HDAC6-WT, anti-HA detection, OD405.
Consider B1, for which the binding entry is “binds”.

With B2, the binding entry is “binds”.

Turning to B3, the binding result is listed as “binds”.

B4: the binding result was “binds”.

As for B5, the binding entry is “binds”.

As for B6, the binding entry is “binds”.

B7: the binding entry is listed as “binds”.

Consider B8, for which the binding result is on record as “binds”.

On to B9, for which the binding result is listed as “binds”.

The target of the next experiment is HDAC6-WT (UniProt Q9UBN7). The experiment can be described thus: ELISA (legend of FIG. 5). A general note: In an ELISA, binding on a coated surface is turned into a signal by an enzyme label.
Consider B1, for which the binding result is reported as “binds”.

For B2, the binding entry was “binds”.

Turning to B3, the binding entry is listed as “binds”.

B4: the binding result is listed as “binds”.

On to B5, for which the binding result is reported as “binds”.

For the molecule B6, the binding result is listed as “binds”.

On to B7, for which the binding result is recorded as “binds”.

Take B8: the binding entry is on record as “binds”.

As to B9, the binding entry is on record as “binds”.
